In PubChem BioAssay AID602313 (National Center for Advancing Translational Sciences (NCATS), 2012):
The whole screen tested about 390,000 compounds, of which about 760 (0.19%) were called active. The shares of active, inactive and inconclusive entries below differ from those in the screen. Calls come from the whole dose curve; as a rule, active = well fitted inhibition curve with a large enough effect; inconclusive = small, poorly fitted or top-dose-only effect; inactive = flat fitted curve, though single readings scatter. A potency beside an inconclusive call is a rough fit, not a confirmed value.

Assay: qHTS for Inhibitors of Vif-A3F Interactions: qHTS; note: nearly all actives have a fitted effect of over 65% in size; for activity, negative = active: % of control where 0% means no effect
Conditions: HeLa A3F-eYFP + Vif (tagged APOBEC3F with the HIV-1 protein that degrades it), YFP fluorescence increase; series mostly up to 46.1 µM; activity, negative = active: at the top concentration
In short: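 HeLa cells stably expressing A3F-eYFP plus Vif, plated and incubated overnight at 37 deg C, then exposed to compounds overnight at 37 deg C. Blocked degradation read as raised yellow fluorescence (Ex 488/Em 500-530).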
Potency is the fitted concentration of half-maximal effect.

Row | SMILES | Potency | activity, negative = active
1 | CCN=C1S/C(=C\c2ccc(N3CCOCC3)cc2C)C(=O)N1CC | inconclusive: 28.2 µM [inhibitor, single point] | 
2 | CCCCNC(=S)N/N=C/c1cccc(OCC)c1O | inconclusive: 3.98 µM [inhibitor, single point] | 
3 | CC(=O)Nc1ccccc1C(=O)C(=O)Nc1ccc(C(=O)NCC2CCCO2)cc1 (stereo unspecified) | inconclusive: 6.31 µM [inhibitor, single point] | 
4 | Cc1cc2occ(CC(=O)N(CC(C)C)c3c(N)n(Cc4ccccc4)c(=O)[nH]c3=O)c2cc1C | inconclusive: 0.631 µM [inhibitor, full curve, poor fit] | 
5 | CC(C(=O)c1ccccc1)C(O)c1ccccn1 (stereo unspecified) | inconclusive: 4.47 µM [inhibitor, single point] | 
6 | CN1CCN(Cc2c(O)ccc3cc(-c4ccc(Cl)cc4)c(=O)oc23)CC1 |  | inactive: -0.539%
7 | Cc1ccc2nsnc2c1NC(=O)c1ccc(-c2cc(Cl)ccc2Cl)o1 | inconclusive: 17.8 µM [inhibitor, partial curve, poor fit] | 
8 | COc1ccc(CCNC(=O)CSc2nnc3ccccn23)cc1 | inconclusive: 5.62 µM [inhibitor, single point] | 
9 | CCN1CCN(C(=S)Nc2ccc3nc(N4CCN(CC)CC4)cc(C)c3c2)CC1 |  | inactive: -18.4%
10 | Cc1ccc(Cc2c(-c3ccc(F)cc3)nc3cc(C)ccn23)cc1 | inconclusive: 3.16 µM [inhibitor, full curve, poor fit] | 
11 | O=C(NC(=S)Nc1ccccn1)c1cc(-c2ccccc2)nc2ccccc12 | inconclusive: 3.16 µM [inhibitor, partial curve, poor fit] | 
12 | CN1C(=O)/C(=C/c2ccccc2OCc2cccc(F)c2)N(C)C1=S | inconclusive: 25.1 µM [inhibitor, single point] | 
13 | O=C(Oc1c(CN2CCOCC2)cc(Cl)c2cccnc12)c1ccccc1Br | inconclusive: 31.6 µM [inhibitor, single point] | 
14 | O=C1NC(=O)C2(N1)C(=O)c1cccc3cccc2c13 (stereo unspecified) | inconclusive: 2.82 µM [inhibitor, single point] | 
15 | CN1C[C@@H]2[C@@H]3C(=O)N(Cc4ccccc4)C(=O)[C@@H]3[C@](Cc3ccccc3)(C1=O)N2C(=O)c1ccc(C(C)(C)C)cc1 | inconclusive: 17.8 µM [inhibitor, single point] | 
16 | C=CCOc1cccc(C2/C(=C(/O)c3ccc(Cl)cc3)C(=O)C(=O)N2CCN2CCOCC2)c1 (stereo unspecified) | inconclusive: 12.6 µM [inhibitor, single point] | 
17 | Cc1ccc(S(=O)(=O)c2cn(CC(=O)Nc3ccc(F)cc3)c3cc4c(cc3c2=O)OCO4)cc1 | inconclusive: 35.5 µM [inhibitor, single point] | 
18 | O=C(NC(=S)N(Cc1ccccc1)Cc1ccccc1)c1ccccc1F |  | inactive: 5.43%
19 | CC(C)C(=O)NC(=S)Nc1ccccc1N1CCN(C(=O)c2ccc(Cl)cc2)CC1 |  | inactive: 13.6%
20 | COc1cc(OC)cc(C(=O)NCC(=O)Nc2ccc(C)c(Cl)c2)c1 |  | inactive: -16.2%
21 | Cc1ccc2c(c1)-c1c(c(C(=O)N3CCN(c4cc(C)ccc4C)CC3)nn1C)CS2 | inconclusive: 3.98 µM [inhibitor, single point] | 
22 | Cc1ccc2c(c1)c1nc3ccccc3nc1n2C | inconclusive: 35.5 µM [inhibitor, single point] | 

Three of the compounds above, comma-delimited:
Row,SMILES,Potency,"activity, negative = active"
8,COc1ccc(CCNC(=O)CSc2nnc3ccccn23)cc1,"inconclusive: 5.62 µM [inhibitor, single point]",
9,CCN1CCN(C(=S)Nc2ccc3nc(N4CCN(CC)CC4)cc(C)c3c2)CC1,,inactive: -18.4%
10,Cc1ccc(Cc2c(-c3ccc(F)cc3)nc3cc(C)ccn23)cc1,"inconclusive: 3.16 µM [inhibitor, full curve, poor fit]",

(listing goes on)

Row | SMILES | Potency | activity, negative = active
23 | COc1ccc(-c2cc(NC(=O)c3cncn3-c3ccccc3)ccc2OC)cc1 | inconclusive: 6.31 µM [inhibitor, single point] | 
24 | CCN(CC)c1ccc(/C=N/NC(=O)c2cccc(S(=O)(=O)N3CCOCC3)c2)c(O)c1 | inconclusive: 35.5 µM [inhibitor, single point] | 
25 | O=C(Nc1cccc(-c2nnc(-c3ccco3)o2)c1)c1ccccc1 | inconclusive: 5.62 µM [inhibitor, single point] | 
26 | COc1ccc(C2C(C(=O)Nc3cccc(OC)c3)c3ccccc3C(=O)N2C)cc1 (stereo unspecified) | inconclusive: 14.1 µM [inhibitor, single point] | 
27 | O=C(N/N=C/C=C/c1ccco1)c1ccccc1Cl | inconclusive: 35.5 µM [inhibitor, single point] | 
28 | COc1ccc(-c2noc3c2-c2nc(-c4ccccc4F)sc2CC3)cc1 |  | inactive: -4.29%
29 | CCOC(=O)c1c(NC(=O)c2cc(-c3ccc(OC)c(OC)c3)on2)sc(C)c1C |  | inactive: -7.99%
30 | Cc1ccc([C@@H]2CC=C(C(=O)O)[C@H](c3ccc(Br)cc3)N2S(=O)(=O)c2ccc(C)cc2)cc1 |  | inactive: -3.55%
31 | CCOC(=O)c1cc(C(=O)c2cc(Cl)ccc2O)coc1=N | inconclusive: 35.5 µM [inhibitor, single point] | 
32 | Cc1ccc(C2C3CSCC=C3C(C#N)=C(N)C2(C#N)C#N)cc1 (stereo unspecified) | inconclusive: 35.5 µM [inhibitor, single point] | 
33 | CCOc1ccccc1N(CC(=O)NCc1ccco1)C(=O)CCC(=O)Nc1nccs1 | inconclusive: 35.5 µM [inhibitor, single point] | 
34 | CCOc1ccc(NCc2cccn2-c2nnc(N3CCC(C(=O)NCCCN4CC(C)CC(C)C4)CC3)s2)cc1 (stereo unspecified) | inconclusive: 35.5 µM [inhibitor, single point] | 
35 | O=[N+]([O-])c1ccc(N2CCCC2)nc1 | inconclusive: 35.5 µM [inhibitor, single point] | 
36 | CCC1=NN(C(=O)Cc2ccc([N+](=O)[O-])cc2)C(O)(c2ccc(Br)cc2)C1 (stereo unspecified) | inconclusive: 0.562 µM [inhibitor, full curve, poor fit] | 
37 | Cc1cccc(-c2noc(-c3ccc(NCc4ccco4)c([N+](=O)[O-])c3)n2)c1 | active: 10 µM | 
38 | O=C(NCCN1CCCCC1)c1cccc2c1C(=O)c1ccc(N3CCCC3)cc1S2(=O)=O | inconclusive: 35.5 µM [inhibitor, single point] | 
39 | O=C(CSc1nnc(-c2ccc(Cl)cc2)o1)N1CCOCC1 | inconclusive: 35.5 µM [inhibitor, single point] | 
40 | CCOC(=O)CN1C2=NCCN2c2ccccc21 |  | inactive: 4.17%
41 | COc1ccccc1NC(=O)Nc1nc(CC(=O)N2CCN(c3ccccc3F)CC2)cs1 | inconclusive: 3.55 µM [inhibitor, partial curve, poor fit] | 
42 | COc1ccccc1N1C(=O)c2ccccc2NC1c1ccc(O)cc1 (stereo unspecified) | inconclusive: 25.1 µM [inhibitor, single point] | 
43 | O=[N+]([O-])c1ccc(C2=Nc3cc(Cl)ccc3OC2)cc1 | active: 25.1 µM | 
44 | CC(C)(C)c1nnc2sc(SCC(=O)c3ccccc3)nn2c1=O | inconclusive: 35.5 µM [inhibitor, single point] | 

Row | SMILES | Potency | activity, negative = active
45 | O=C(c1ccc(Br)o1)N1CCN=C1SCc1cccnc1 |  | inactive: -14.3%
46 | O=C(/C=C/c1cn(CC(O)CN2CCCCC2)c2ccccc12)c1ccccc1 (stereo unspecified) | inconclusive: 35.5 µM [inhibitor, single point] | 
47 | Cc1ccc(C2CC(c3ccco3)=NN2S(C)(=O)=O)cc1 (stereo unspecified) | inconclusive: 25.1 µM [inhibitor, single point] | 
48 | Cc1sc2nc(CSc3ccc([N+](=O)[O-])c(C(F)(F)F)c3)[nH]c(=O)c2c1C | inconclusive: 35.5 µM [inhibitor, single point] | 
49 | Cn1cc(/C=C/c2cc[n+](C)cc2)c2cc(Cl)ccc21 | inconclusive: 1.78 µM [inhibitor, partial curve, poor fit] | 
50 | Cc1ccc(S(=O)(=O)c2nc(Cc3ccccc3)oc2N2CCOCC2)cc1 |  | inactive: 1.12%
51 | Cc1ccc(C(=O)N/N=C/c2ccc(N3CCOCC3)cc2)c(C)c1 |  | inactive: -9.23%
52 | NC(=O)C1C(=O)c2ccccc2C1(C[N+](=O)[O-])c1ccccc1 (stereo unspecified) | inconclusive: 17.8 µM [inhibitor, partial curve, poor fit] | 
53 | C=CCn1c(SCC(=O)NCC2CCCO2)nnc1-c1ccncc1 (stereo unspecified) | inconclusive: 15.8 µM [inhibitor, single point] | 
54 | CCOc1ccc2[nH]c3c(N4CCc5ccccc5C4)ncnc3c2c1 |  | inactive: 5.55%
55 | Cc1ccc(C(C)C)c(OCCCN2CCc3ccccc3C2)c1 |  | inactive: 0.764%
56 | CC(=O)Nc1ccc2c3c(cccc13)C(=O)N(c1ccccc1)C2=O | inconclusive: 5.01 µM [inhibitor, single point] | 
57 | CCOc1ccccc1-c1nc(-c2cc3ccccc3nc2OC)no1 | inconclusive: 25.1 µM [inhibitor, single point] | 
58 | Cc1ccc(-c2ocnc2C(=O)Nc2ccccc2NC(=O)c2ccccn2)cc1 | inconclusive: 35.5 µM [inhibitor, single point] | 
59 | Brc1ccc(OCCCCCN2CCOCC2)cc1 | inconclusive: 0.708 µM [inhibitor, partial curve, poor fit] | 
60 | CCCCNc1c(-c2ccc(OC)c(SC3CCCCC3)c2)nc2ccc(Cl)cn12 | inconclusive: 35.5 µM [inhibitor, single point] | 
61 | CCCc1cc(C(=O)OCC(=O)N(CCC)c2c(N)n(Cc3ccccc3)c(=O)[nH]c2=O)sc1C | inconclusive: 14.1 µM [inhibitor, single point] | 
62 | O=C(Cn1cc(S(=O)(=O)c2ccc(F)cc2)c(=O)c2cc3c(cc21)OCO3)Nc1ccccc1 | inconclusive: 8.91 µM [inhibitor, partial curve, poor fit] | 
63 | O=C(CSc1ccccn1)c1ccc(F)cc1 |  | inactive: -5.59%
64 | COc1cccc(CN(C)C(=O)c2[nH]c(C)c(C(C)=O)c2C)c1OC |  | inactive: 8.8%
65 | CC(=O)C(C)Sc1nnc(-c2ccccc2F)n1C1CC1 (stereo unspecified) | inconclusive: 1.58 µM [inhibitor, full curve, poor fit] | 
66 | Cc1cccc(Nc2nc(Nc3cccc(C)c3)nc(N3CCOCC3)n2)c1 | inconclusive: 35.5 µM [inhibitor, single point] | 
